Data as given in PubChem BioAssay AID1259425 (University of Nebraska Medical Center, 2018).
Here is one part, drawn at random, of about 14,000 deposited reagents. Not given: the time to read-out.

- Purpose: 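Seek colon cancer weak points whose silencing resembles KSR1 loss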 (primary screen)
- Cells: HCT116 human colon cancer cells
- Knock-down reagent: siRNA pool against human genes, 50 nM siRNA
- Measured: 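mRNA of six signature genes measured together by branched-DNA assay after 50 nM siRNA pool, blank removed, divided by geometric mean of two housekeeping genes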
- Reading the numbers: BNIP3L mRNA: higher = more BNIP3L transcript after knockdown; NDRG1 mRNA: higher = more NDRG1 transcript after knockdown; BNIP3 mRNA: higher = more BNIP3 transcript after knockdown; ALDOC mRNA: higher = more ALDOC transcript after knockdown; ACSL5 mRNA: higher = more ACSL5 transcript after knockdown

gene	BNIP3L mRNA, set 1	NDRG1 mRNA, set 1	BNIP3 mRNA, set 1	ALDOC mRNA, set 1	ACSL5 mRNA, set 1
CBX5	0.085	0.0433	0.276	0.0296	0.169
BMPR2	0.0793	0.0836	0.326	0.0118	0.219
TRIM5	0.207	0.152	0.249	0.0427	0.0996
POMT1	0.181	0.348	0.403	0.0244	0.186
PHKG2	0.0764	0.138	0.306	0.0106	0.174
PSME3IP1	0.103	0.174	0.49	0.0733	0.37
CD70	0.0777	0.254	0.294	0.01	0.163
DOK3	0.129	0.198	0.475	0.0791	0.268
NF1	0.045	0.124	0.189	0.0148	0.151
CNKSR1	0.0979	0.187	0.629	0.01	0.288
PJA2	0.144	0.611	0.329	0.0503	0.542
TGM5	0.107	0.262	0.164	0.0213	0.148
GSTT2	0.151	0.24	0.36	0.0109	0.141
SPON1	0.0545	0.389	0.493	0.0416	0.163
MRPS27	0.094	0.458	0.283	0.0197	0.338
ZC3H10	0.127	0.0513	0.309	0.0839	0.0893
HS3ST2	0.112	0.205	0.349	0.0478	0.246
RHOD	0.109	0.321	0.322	0.0555	0.243
PLXND1	0.187	0.0917	0.335	0.021	0.11
CABIN1	0.161	1.18	0.278	0.0139	0.205
TRPV6	0.12	0.0796	0.271	0.00908	0.0799
GRAMD1B	0.152	0.266	0.247	0.067	0.205
SHC3	0.115	0.163	0.293	0.0563	0.205
COPB2	0.454	0.817	0.874	0.0185	0.198
TADA3	0.13	0.186	0.128	0.0466	0.209
STK33	0.0636	0.0864	0.163	0.00617	0.2
TRAPPC2L	0.144	0.475	0.342	0.0467	0.277
ZC3H14	0.395	0.395	0.433	0.0668	0.321
FOXJ2	0.0877	0.0999	0.348	0.0125	0.183
SS18L2	0.0866	0.123	0.332	0.0215	0.314
FIGNL1	0.0544	0.161	0.2	0.0267	0.234
PGGHG	0.155	0.452	0.304	0.0132	0.19
C1S	0.0758	0.112	0.277	0.0385	0.116
POLR2J	0.169	0.326	0.325	0.0581	0.106

Targets above whose gene name begins with P or p (7):
gene	BNIP3L mRNA, set 1	NDRG1 mRNA, set 1	BNIP3 mRNA, set 1	ALDOC mRNA, set 1	ACSL5 mRNA, set 1
POMT1	0.181	0.348	0.403	0.0244	0.186
PHKG2	0.0764	0.138	0.306	0.0106	0.174
PSME3IP1	0.103	0.174	0.49	0.0733	0.37
PJA2	0.144	0.611	0.329	0.0503	0.542
PLXND1	0.187	0.0917	0.335	0.021	0.11
PGGHG	0.155	0.452	0.304	0.0132	0.19
POLR2J	0.169	0.326	0.325	0.0581	0.106
